PubChem BioAssay AID504774, Drosophila RNAi Screening Center | 2011
In all, the deposit lists about 23,000 reagents; this is an unselected part of those that have a named target and a result. 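Values are quantile-normalised luminescence on an arbitrary scale; higher means more cells surviving MMS.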 Names joined by + are all predicted targets of the reagent.

- Screen: 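Fly genes whose loss alters survival after alkylation damage to DNA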 (primary screen)
- System: Drosophila Kc167 cells
- Reagent: long dsRNA against Drosophila genes, about 0.25 µg dsRNA per well
- Timing: about 6 days: 3 days knock-down, then 3 days with or without MMS
- Treatment: methyl methanesulphonate 0.004% (w/v) for 3 days after knock-down
- Read-out: 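ATP-dependent luminescence as a measure of live cells in MMS-exposed wells, quantile normalised within each plate, with replicate values also given as a mean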
- Reading the numbers: mean viability with MMS and viability with MMS: higher = more surviving cells after MMS

| target | amplicon | mean viability with MMS | viability with MMS, replicate 1 | viability with MMS, replicate 2 |
| --- | --- | --- | --- | --- |
| CG3222 | DRSC10355 | 3.69e6 | 4.08e6 | 4.22e6 |
| CG2111 | DRSC18205 | 3.76e6 | 4.34e6 | 4.11e6 |
| CG33631 | DRSC12763 | 3.63e6 | 4.16e6 | 4.02e6 |
| CG13010 | DRSC19529 | 3.45e6 | 3.90e6 | 3.89e6 |
| CG32201 | DRSC22452 | 3.58e6 | 4.06e6 | 4.02e6 |
| SCCRO | DRSC10844 | 3.39e6 | 3.85e6 | 3.79e6 |
| tbrd-1 | DRSC14601 | 3.60e6 | 4.05e6 | 4.12e6 |
| CG12362 | DRSC09884 | 3.45e6 | 4.07e6 | 3.75e6 |
| CR11023 | DRSC00302 | 3.46e6 | 3.86e6 | 3.96e6 |
| CG14304 | DRSC14783 | 3.36e6 | 3.97e6 | 3.70e6 |
| kune | DRSC04860 | 3.56e6 | 4.09e6 | 4.00e6 |
| AANATL2 | DRSC03227 | 3.56e6 | 4.11e6 | 3.95e6 |
| RpL36A | DRSC03055 | 3.24e6 | 3.62e6 | 3.72e6 |
| HBS1 | DRSC08544 | 3.34e6 | 3.81e6 | 3.80e6 |
| CG13796 + CG31904 | DRSC22161 | 3.59e6 | 4.08e6 | 4.02e6 |
| Bdbt | DRSC15218 | 3.32e6 | 3.77e6 | 3.83e6 |
| CG15394 | DRSC00408 | 3.41e6 | 3.82e6 | 3.86e6 |
| CG3610 | DRSC15502 | 3.59e6 | 4.07e6 | 4.10e6 |
| CG6980 | DRSC16162 | 3.52e6 | 3.92e6 | 4.08e6 |
| CG9471 | DRSC16499 | 3.55e6 | 4.04e6 | 4.01e6 |
| CG4572 | DRSC15603 | 3.45e6 | 3.89e6 | 3.94e6 |
| Ten-a | DRSC18924 | 3.58e6 | 4.04e6 | 4.07e6 |
| Ten-a | DRSC19496 | 2.72e6 | 3.58e6 | 3.58e6 |
| Ten-a | DRSC19700 | 3.47e6 | 3.96e6 | 3.90e6 |
| Ten-a | DRSC19793 | 3.72e6 | 4.25e6 | 4.13e6 |
| Ten-a | DRSC19864 | 3.51e6 | 4.04e6 | 3.92e6 |
| Ten-a | DRSC19865 | 3.56e6 | 4.11e6 | 3.96e6 |
| Ten-a | DRSC20290 | 3.60e6 | 4.12e6 | 4.02e6 |
| Ten-a | DRSC21461 | 3.46e6 | 3.91e6 | 3.98e6 |
| Ten-a | DRSC23016 | 3.44e6 | 4.07e6 | 3.75e6 |
| psd | DRSC03131 | 3.46e6 | 3.94e6 | 3.91e6 |
| CG30099 | DRSC07039 | 3.61e6 | 4.07e6 | 4.09e6 |
| CG18417 | DRSC10319 | 3.66e6 | 4.09e6 | 4.23e6 |
| Obp47b + CG7741 | DRSC06330 | 3.86e6 | 4.40e6 | 4.27e6 |
| CG14435 | DRSC17928 | 3.30e6 | 3.86e6 | 3.59e6 |
| CG14435 | DRSC23282 | 3.55e6 | 4.00e6 | 4.08e6 |
| Gbp3 | DRSC15206 | 3.67e6 | 4.18e6 | 4.12e6 |

Targets above whose target name begins with T or t:
| target | amplicon | mean viability with MMS | viability with MMS, replicate 1 | viability with MMS, replicate 2 |
| --- | --- | --- | --- | --- |
| tbrd-1 | DRSC14601 | 3.60e6 | 4.05e6 | 4.12e6 |
| Ten-a | DRSC18924 | 3.58e6 | 4.04e6 | 4.07e6 |
| Ten-a | DRSC19496 | 2.72e6 | 3.58e6 | 3.58e6 |
| Ten-a | DRSC19700 | 3.47e6 | 3.96e6 | 3.90e6 |
| Ten-a | DRSC19793 | 3.72e6 | 4.25e6 | 4.13e6 |
| Ten-a | DRSC19864 | 3.51e6 | 4.04e6 | 3.92e6 |
| Ten-a | DRSC19865 | 3.56e6 | 4.11e6 | 3.96e6 |
| Ten-a | DRSC20290 | 3.60e6 | 4.12e6 | 4.02e6 |
| Ten-a | DRSC21461 | 3.46e6 | 3.91e6 | 3.98e6 |
| Ten-a | DRSC23016 | 3.44e6 | 4.07e6 | 3.75e6 |

The results go on:
| target | amplicon | mean viability with MMS | viability with MMS, replicate 1 | viability with MMS, replicate 2 |
| --- | --- | --- | --- | --- |
| Alms1b + Alms1a | DRSC18559 | 3.23e6 | 3.76e6 | 3.74e6 |
| Nep7 | DRSC15830 | 3.51e6 | 4.05e6 | 3.90e6 |
| Gcat | DRSC09719 | 3.73e6 | 4.28e6 | 4.11e6 |
| CG14332 | DRSC14811 | 3.61e6 | 4.01e6 | 4.22e6 |
| CG32984 | DRSC21602 | 3.93e6 | 4.21e6 | 4.61e6 |
| TwdlO | DRSC16043 | 3.52e6 | 3.76e6 | 4.20e6 |
| Trhn | DRSC08621 | 3.66e6 | 4.27e6 | 4.04e6 |
| mi | DRSC04498 | 3.49e6 | 3.95e6 | 3.76e6 |
| Ac13E | DRSC19325 | 3.67e6 | 4.19e6 | 4.09e6 |
| CG9030 | DRSC20139 | 3.51e6 | 3.96e6 | 4.00e6 |
| t-Grip128 | DRSC07853 | 3.64e6 | 4.13e6 | 4.12e6 |
| noi | DRSC12383 | 3.07e6 | 3.62e6 | 3.62e6 |
| CG10939 | DRSC06019 | 3.73e6 | 4.29e6 | 4.16e6 |
| CG10939 | DRSC21734 | 3.65e6 | 4.06e6 | 4.20e6 |
| ms(3)K81 | DRSC14746 | 3.40e6 | 3.70e6 | 3.94e6 |
| CG10508 | DRSC11612 | 3.43e6 | 3.91e6 | 3.84e6 |
| CG10508 | DRSC11613 | 3.54e6 | 3.99e6 | 4.05e6 |
| Su(Tpl) | DRSC10954 | 3.33e6 | 3.75e6 | 3.76e6 |
| Gpo1 | DRSC07128 | 3.70e6 | 4.14e6 | 4.24e6 |
| CG42354 + CG42353 | DRSC20172 | 3.23e6 | 3.59e6 | 3.54e6 |
| conv | DRSC07213 | 3.59e6 | 4.01e6 | 4.06e6 |
| Ir48b | DRSC06320 | 3.34e6 | 3.71e6 | 3.63e6 |
| stau | DRSC07698 | 3.53e6 | 3.86e6 | 4.14e6 |
| FeCH | DRSC16948 | 3.62e6 | 4.24e6 | 3.96e6 |
| CG11400 | DRSC06070 | 3.57e6 | 4.04e6 | 4.04e6 |
| CG18095 | DRSC01948 | 3.59e6 | 4.09e6 | 4.04e6 |
| Bcat | DRSC19756 | 3.61e6 | 4.10e6 | 4.06e6 |
| Dgat2 | DRSC06803 | 3.76e6 | 4.32e6 | 4.18e6 |
| CG6179 | DRSC19973 | 3.51e6 | 3.96e6 | 4.01e6 |
| sut4 | DRSC07703 | 3.60e6 | 4.16e6 | 4.00e6 |
| CG15747 | DRSC19713 | 3.27e6 | 3.37e6 | 3.62e6 |
| CG11911 | DRSC00331 | 3.53e6 | 4.02e6 | 3.98e6 |
| CG7509 | DRSC08596 | 3.53e6 | 3.95e6 | 4.06e6 |
| 140up | DRSC12634 | 3.52e6 | 3.99e6 | 3.97e6 |
| Mpp6 | DRSC03169 | 3.41e6 | 3.85e6 | 3.83e6 |
| Dscam3 | DRSC14525 | 3.49e6 | 4.02e6 | 3.91e6 |
| Dscam3 | DRSC16376 | 3.53e6 | 4.01e6 | 4.00e6 |
| Smyd4-4 | DRSC05956 | 3.63e6 | 4.15e6 | 4.09e6 |
| COX5A | DRSC16611 | 3.33e6 | 3.84e6 | 3.79e6 |
| tsr | DRSC04718 | 3.39e6 | 3.85e6 | 3.80e6 |
| ppk9 | DRSC04134 | 3.52e6 | 4.00e6 | 3.99e6 |
| ppk9 | DRSC04135 | 3.59e6 | 4.04e6 | 4.11e6 |
| CG30076 | DRSC05494 | 3.42e6 | 3.90e6 | 3.95e6 |
| lncRNA:CR32553 | DRSC19229 | 3.42e6 | 3.91e6 | 3.89e6 |
| CG34283 | DRSC13313 | 1.76e6 | 4.07e6 | 3.79e6 |
| CG6770 | DRSC02992 | 3.48e6 | 3.91e6 | 3.91e6 |
| isoQC | DRSC11790 | 3.67e6 | 4.18e6 | 4.09e6 |
| CG14797 | DRSC17955 | 3.55e6 | 4.00e6 | 4.06e6 |
| Gug | DRSC11179 | 3.55e6 | 3.95e6 | 4.11e6 |
| ERp60 | DRSC07309 | 3.64e6 | 4.10e6 | 4.17e6 |
